# In all, about 360,000 compounds went through this assay and about 780 (0.22%) were called active. The inconclusive results got no clear call from the source; some entries with a clear call stand among them for comparison. Cut-off read from the data, not from the text of the source: active = inhibition above about 35% (passing the limit was not always enough); inconclusive = no clear call, values can overlap the other calls.
# System: Botulinum neurotoxin type F light chain protease (Clostridium botulinum)
# Assay: BoNT/F light chain protease inhibitors, primary screen, biochemical, flow cytometry, MLPCN library (AID 588497); note: plate controls were buffer without enzyme for full effect and enzyme alone for no effect
# Details: Multiplex microsphere protease cleavage assay, at 10 µM, hits give high values
row,Structure (SMILES),inhibition
1,Cc1cnc(C(=O)OCC(=O)NCc2cccc(Cl)c2)cn1,inactive: -0.6%
2,Cn1nc(C(C)(C)C)cc1C(=O)NNC(=O)c1ccccc1Cl,inconclusive: -16.7%
3,Cn1nc(C(C)(C)C)cc1NC(=O)Nc1cc(Cl)cc(Cl)c1,inconclusive: -51.8%
4,CC(C)=NOCC(=O)Nn1c(COc2ccccc2)nc2ccccc2c1=O,inconclusive: 5.2%
5,CCCCNC(=O)C1CCN(C(=O)Nc2ccc(C)cc2)CC1,inactive: 2%
6,COC(=O)c1ccc2ccn(CC(=O)NC3CCCCC3)c2c1,inconclusive: -5.4%
7,O=C(N/N=C/c1cc(Cl)c(O)c(Cl)c1)c1cc2c(ccc3ccccc32)o1,inactive: -5.1%
8,COc1cccc(-c2cc(C(=O)N3CCN(S(=O)(=O)c4ccccc4)CC3)[nH]n2)c1,inactive: -3.5%
9,NC(=O)c1ccc(NC(=O)C2CCCC2)cc1,inconclusive: 34.3%
10,COc1cc2c(cc1OC)CN(C1CCCN(Cc3cc(Cl)ccc3O)C1)CC2 (stereo not given),inconclusive: 2.5%
11,O=S(=O)(c1ccc(Br)cc1)N1CCn2c(nc3ccccc32)C1,inactive: -0.9%
12,COc1ccc(-c2csc3ncnc(NCCN4CCOCC4)c23)cc1,inconclusive: 6.9%
13,COc1ccc(C(C)(O)c2nc(-c3ccccc3OC)cs2)cc1 (stereo not given),inactive: 5.8%
14,COc1cccc(NC2=C(C#N)C(=O)NC(c3cccc(OC)c3O)S2)c1 (stereo not given),inconclusive: 28.4%
15,N/C(=N\OC(=O)c1ccc([N+](=O)[O-])cc1)c1ccc(Br)cc1,inconclusive: -17.3%
16,COc1ccc(NC(=O)c2nn(C34CC5CC(CC(C5)C3)C4)cc2[N+](=O)[O-])cc1,inactive: -12.2%
17,COc1cccc(NC(=O)CSc2nc3ccccc3c(=O)n2C)c1,inconclusive: 27%
18,CC(=O)Nc1ccc(C(=O)NNC(=O)c2ccc(Cl)cc2)cc1,inconclusive: 28.1%
19,Cc1cc(S(=O)(=O)NC2CCN(Cc3ccccc3)CC2)c(C)cc1Cl,inconclusive: -50.8%
20,CCC(=O)N1CCC(C)(C(=O)NCc2cccc(OC)c2)C1 (stereo not given),inactive: -0.4%
21,COc1cc(CN2CCN(C(c3ccccc3)c3ccccc3)CC2)cc(OC)c1OC,inconclusive: 10.4%
22,COC(=O)c1sccc1S(=O)(=O)Nc1ccc(S(N)(=O)=O)cc1,inconclusive: -29.5%
23,Cn1cccc1-c1nc2ccccc2[nH]1,inconclusive: -0.7%
24,NC(=O)c1ccc(NC(=O)CS(=O)(=O)c2cn(CC(=O)N3CCCCC3)c3ccccc23)cc1,inactive: -5.7%
25,CCCNC(=O)COC(=O)c1ccccc1OCC(=O)Nc1ccc(Br)cc1,inactive: 8.1%

# — PubChem BioAssay AID588497 (NMMLSC, 2011)
